# Results of single-concentration screens

The values are deposited in ChEMBL (CHEMBL3988442, “University of Dundee, Small-Polar-MMV Screening Library” (2021)).

Results are given as percent effect. How 0% and 100% were set is not recorded. Most values in the screen are low, and negative values occur. The compounds are a random part of those screened. Two or more numbers in one place are separate tests of the same structure; such repeats can differ widely.

A: 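Growth of Mycobacterium tuberculosis over 4 days (cholesterol / DPPC medium with tyloxapol); the read-out is not stated. Concentration: 50 µM. The record gives no direction; compounds that gave an IC50 in retests scored well above the rest, so higher reads as more growth inhibition. Of about 69,000 compounds tested this way, about 370 (0.54%) reached 50% or more in at least one test.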
B: 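Growth of Mycobacterium tuberculosis over 3 days (7H9 medium with glucose and tyloxapol); the read-out is not stated. Compounds at 50 µM. The record gives no direction; compounds that gave an IC50 in retests scored well above the rest, so higher reads as more growth inhibition. Size under these conditions: about 69,000 compounds, about 760 of them at 50% or above in at least one test.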

For Cc1ccoc1C(=O)N1Cc2c(CN3CCCCC3)nn(C)c2C1.O=CO the result was A: -10.8%; B: -4.312%. With C1CCC(c2nnc3sc(C4CCCO4)nn23)C1 (stereo not shown) the screen gave A: 4.332%; B: 1.754% & 26%. With Cn1cnnc1S(=O)(=O)C1CCN(S(=O)(=O)c2ccc(F)c(Cl)c2)CC1 the screen gave A: -5.672%; B: 11.56% & -2.371%. Cc1ccc(-c2ccc(C(=O)NCC(N)=O)c(F)c2)cc1 read A: -8.108%; B: 17.85% & 3.286%. For [H][C@@]12C[C@H](C(=O)N(C)C)[C@@]([H])(CN(c3ncc(CC)cn3)C1)O2 the result was A: -5.772%; B: 7.366%. Cc1cccc(NC2CCN(C(=O)Nc3cc(F)cc(F)c3)CC2)n1 read A: 29.24%; B: 32.84%. O=C(C1CCCCC1)N1CCC2(COc3ncccc3S(=O)(=O)N2)C1 (stereo not shown) read A: 6.984%; B: 32.88%.

For CCc1nc(NCCc2c(C)nn(CC)c2C)c2cnn(C)c2n1 the result was A: 25.22%; B: 5.3% & -1.086%. With CC(=O)c1csc(-c2csc(Cn3ccc(=O)[nH]c3=O)n2)c1 the screen gave A: -11.61%; B: -10.72% & -13.99%. Result for Cc1noc(C)c1CNc1cc(N2CCCC2CO)ncn1 (stereo not shown) was A: -6.487%; B: -8.625%. With Cn1ncc2c(N3CCC(CCO)CC3)nc(C(C)(C)C)nc21 the screen gave A: 11.58%; B: 28.23%. For Cc1ccc(C2CC(=O)NCc3nc(N)sc32)cc1C (stereo not shown) the result was A: -0.9863%; B: 14.29%. COCc1noc(CCNC(=O)c2ccc(C3CCCO3)s2)n1 (stereo not shown) gave A: -23.71%; B: -28.03%. Result for CN1CCCCCC1C(=O)N1CCN(c2ccccc2C#N)CC1 (stereo not shown) was A: 2.92%; B: -0.2011%.

For O=C(O)c1ccccc1-n1cnc(CN2CCCCCC2)c1 the result was A: 9.033%; B: -11.31%. Result for C[C@@H]1CN(c2nc(N)nc3c2CCC3)C[C@]1(C)O was A: 26.97%; B: 20.46%. CCNC(=O)[C@@H]1CCCN1[C@@H](C(=O)NC)c1ccccc1.Cl read A: 10.53%; B: 0.0874% & -5.15%. Result for Cc1cc(CN(C)C(=O)c2ccnc(N(C)C)c2)no1 was A: -26.73%; B: -32.67%. Result for CN1CCC(CCNC(=O)c2ccc(N(C)S(C)(=O)=O)cc2Cl)CC1 was A: -14.98%; B: -27.11%. With CCCc1nc(CN2CCOC(Cn3cncn3)C2)no1 (stereo not shown) the screen gave A: -16.13%; B: -23.42%. O=C(Cc1ccc(O)cc1)N1CCCC(O)(CN2CCOCC2)CC1 (stereo not shown) gave A: 15.3%; B: 8.655%.

Cc1cnc(CN2CCCC2c2noc(C(C)C)n2)cn1 (stereo not shown) read A: -16.39%; B: -9.294%. Result for Cc1nc(-c2cccc(N3CCC(NC4CCOCC4)CC3)c2)cs1 was A: -3.591%; B: -5.095%. Result for CCC(C)CS(=O)(=O)NC(=O)C1CC1 (stereo not shown) was A: 2.653%; B: 2.206%. COc1ccc(CN2CCn3cc(CNC(=O)CC4CC4)nc3C2)cc1.O=C(O)C(F)(F)F gave A: -18.76%; B: -12.14%. Result for [H][C@@]12CC[C@@](O)(c3ccc(C)cn3)[C@]1([H])CN(Cc1ccc(SC)cc1)C2 was A: 27.28%; B: 44.03%. With Cc1ccc2[nH]c(=O)c(CN(C)Cc3cc(C4CC4)[nH]n3)cc2c1 the screen gave A: -2.277% & 18.21%; B: 29.67%. Cc1cc(C)n(C2CN(CCC(N)=O)C2)n1 gave A: -5.088%; B: 22.86%.

With CCNC(=O)N1CCN(C(=O)c2cc(Cl)cc3cccnc23)CC1 the screen gave A: 6.345%; B: 1.082%. Result for CCOC(=O)CNC(=O)NCc1cccn1Cc1ccccc1C was A: -24.38%; B: -1.69%. O=C(NCC1CCCCO1)c1ccc(-c2ccco2)[nH]c1=O (stereo not shown) gave A: -5.018% & -5.788%; B: 9.225%. Result for CC(=O)Nc1nc(C(=O)NCCOc2ccccc2F)cs1 was A: 7.516% & 5.528%; B: 1.009%. With CN(CCCO)C(=O)c1ccc2c(c1)nc(N1CC[C@H](O)C1)n2C the screen gave A: -7.928%; B: -13.14%.

The last 3 entries again:

With O=C(NCC1CCCCO1)c1ccc(-c2ccco2)[nH]c1=O (stereo not shown) the screen gave A: -5.018% & -5.788%; B: 9.225%.
With CC(=O)Nc1nc(C(=O)NCCOc2ccccc2F)cs1 the screen gave A: 7.516% & 5.528%; B: 1.009%.
With CN(CCCO)C(=O)c1ccc2c(c1)nc(N1CC[C@H](O)C1)n2C the screen gave A: -7.928%; B: -13.14%.